Weaker means in comparison with the reference protein, sequence or condition of that experiment. For some of these results: Where a protein sequence is shown, tags need not be part of it.

Common to all, as to assay: EMSA
The target in data set [1] is hTRMT2A CBM (catalytic base mutant) E581A (Homo sapiens) (UniProt Q8IZ69). Conditions: slightly less than WT, still nM KD range, poly(U) competitor; EMSA: 50 mM HEPES-NaOH pH 7.5, 150 mM NaCl, 4% glycerol, 2.5 ng/ul poly(U), 5 nM RNA, 0-1.25 uM protein (final, as stated), 20 min room temperature; recombinant protein; residues 1-625; protein details: N-terminal His-SUMO tag cleaved; label: 5'-32P.

Data set [2] deals with hTRMT2A CNM (catalytic nucleophile mutant) C538A (Homo sapiens) (UniProt Q8IZ69). Conditions: slightly less than WT, still nM KD range, poly(U) competitor; EMSA: 50 mM HEPES-NaOH pH 7.5, 150 mM NaCl, 4% glycerol, 2.5 ng/ul poly(U), 5 nM RNA, 0-1.25 uM protein (final, as stated), 20 min room temperature; recombinant protein; residues 1-625; protein details: N-terminal His-SUMO tag cleaved; label: 5'-32P.

The target in data set [3] is T1, hTRMT2A Central domain (Homo sapiens) (UniProt Q8IZ69).
T1 sequence (looked up): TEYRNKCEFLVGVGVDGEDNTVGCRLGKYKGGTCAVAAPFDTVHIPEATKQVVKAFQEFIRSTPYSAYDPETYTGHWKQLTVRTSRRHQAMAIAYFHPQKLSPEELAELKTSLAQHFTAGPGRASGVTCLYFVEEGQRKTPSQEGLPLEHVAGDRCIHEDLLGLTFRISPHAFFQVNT
Conditions: micromolar KD range, poly(U) competitor; EMSA: 50 mM HEPES-NaOH pH 7.5, 150 mM NaCl, 4% glycerol, 2.5 ng/ul poly(U), 5 nM RNA, 0-1.25 uM protein (final, as stated), 20 min room temperature; recombinant protein; residues 237-414; protein details: N-terminal His-SUMO tag retained; label: 5'-32P.

Data set [4] has as its target hTRMT2A Fusion domain del241-412 (Homo sapiens) (UniProt Q8IZ69). The note with it: micromolar KD range, poly(U) competitor; EMSA: 50 mM HEPES-NaOH pH 7.5, 150 mM NaCl, 4% glycerol, 2.5 ng/ul poly(U), 5 nM RNA, 0-1.25 uM protein (final, as stated), 20 min room temperature; recombinant protein; residues 69-590; protein details: N-terminal SUMO tag cleaved; label: 5'-32P.

For data set [5], the target named is hTRMT2A RBD (Homo sapiens) (UniProt Q8IZ69). Conditions: micromolar KD range, poly(U) competitor; EMSA: 50 mM HEPES-NaOH pH 7.5, 150 mM NaCl, 4% glycerol, 2.5 ng/ul poly(U), 5 nM RNA, 0-1.25 uM protein (final, as stated), 20 min room temperature; recombinant protein; residues 69-147; protein details: N-terminal SUMO tag cleaved; label: 5'-32P.
The target of data set [6] is hTRMT2A FL (WT) (Homo sapiens) (UniProt Q8IZ69). The note with it: poly(U) competitor, EMSA: 50 mM HEPES-NaOH pH 7.5, 150 mM NaCl, 4% glycerol, 2.5 ng/ul poly(U), 5 nM RNA, 0-1.25 uM protein (final, as stated), 20 min room temperature, recombinant protein, residues 1-625, protein details: N-terminal His-SUMO tag cleaved, label: 5'-32P.

Regarding “GGUCCCAUGGUGUAAUGGUUAGCACUCUGGACUUUGAAUCCAGCGAUCCGAGUUCAAAUCUCGGUGGGACCUCCA [tRNAGln-TTG]”, the binding result in data set [1], in data set [2], in data set [3], in data set [4] and in data set [5] was “binds more weakly” throughout.
Take “CCGAGUUCAAAUCUCGG [tRNAGln T-loop (49-65)]”: in data set [6] (weaker shift, most RNA free), the binding result is on record as “binds more weakly”.
For “GAUGGAUAAUAGAAUCUCUUUCAACUAAUAAGAGACAUUAUCACGAAACAAU [ASH1 E3 element mRNA]”, the binding result in data set [6] ((high) nanomolar KD range) is “binds more weakly”.
